Assay results reported in paper PMC10774338.

How the values were obtained:
Experiment in all cases: co-IP; GFP-WDR44 wild-type or variants transiently expressed in RPE1 WDR44 KO F4 cells for 48 h; GFP proteins immunoprecipitated from lysate, blots probed with GFP, RAB11 and VAPA antibodies
[1] = target: T1, GFP-tagged WDR44 N840S (human) (UniProt Q5JSH3)
T1 sequence: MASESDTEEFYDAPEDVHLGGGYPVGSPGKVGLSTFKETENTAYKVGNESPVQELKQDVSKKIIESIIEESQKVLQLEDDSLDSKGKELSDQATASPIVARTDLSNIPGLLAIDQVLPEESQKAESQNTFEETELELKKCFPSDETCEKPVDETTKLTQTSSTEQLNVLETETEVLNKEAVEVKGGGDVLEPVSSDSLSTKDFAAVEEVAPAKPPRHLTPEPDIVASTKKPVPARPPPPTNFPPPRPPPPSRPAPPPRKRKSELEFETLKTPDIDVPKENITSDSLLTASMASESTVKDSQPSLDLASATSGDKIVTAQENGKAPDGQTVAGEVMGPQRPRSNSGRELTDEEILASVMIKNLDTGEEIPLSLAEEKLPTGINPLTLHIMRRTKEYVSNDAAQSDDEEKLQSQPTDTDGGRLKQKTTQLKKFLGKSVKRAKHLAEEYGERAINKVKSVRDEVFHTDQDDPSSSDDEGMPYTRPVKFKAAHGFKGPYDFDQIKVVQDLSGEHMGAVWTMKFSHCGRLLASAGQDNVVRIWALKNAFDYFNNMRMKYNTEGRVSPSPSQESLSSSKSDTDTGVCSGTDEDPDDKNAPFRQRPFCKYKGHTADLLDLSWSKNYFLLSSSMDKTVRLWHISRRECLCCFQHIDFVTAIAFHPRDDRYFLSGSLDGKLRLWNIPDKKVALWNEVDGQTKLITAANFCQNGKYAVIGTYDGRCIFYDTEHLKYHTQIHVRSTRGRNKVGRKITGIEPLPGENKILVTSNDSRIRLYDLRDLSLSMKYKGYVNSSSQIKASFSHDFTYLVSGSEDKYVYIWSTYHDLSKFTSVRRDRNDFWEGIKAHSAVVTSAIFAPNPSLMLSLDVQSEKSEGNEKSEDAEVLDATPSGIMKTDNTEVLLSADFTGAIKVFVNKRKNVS

[2] = target: T2, GFP-tagged WDR44 G782C (human) (UniProt Q5JSH3)
T2 sequence: T1 sequence with G782C, S840N

[3] = target: T3, GFP-tagged WDR44 R733* (human) (UniProt Q5JSH3)
T3 sequence: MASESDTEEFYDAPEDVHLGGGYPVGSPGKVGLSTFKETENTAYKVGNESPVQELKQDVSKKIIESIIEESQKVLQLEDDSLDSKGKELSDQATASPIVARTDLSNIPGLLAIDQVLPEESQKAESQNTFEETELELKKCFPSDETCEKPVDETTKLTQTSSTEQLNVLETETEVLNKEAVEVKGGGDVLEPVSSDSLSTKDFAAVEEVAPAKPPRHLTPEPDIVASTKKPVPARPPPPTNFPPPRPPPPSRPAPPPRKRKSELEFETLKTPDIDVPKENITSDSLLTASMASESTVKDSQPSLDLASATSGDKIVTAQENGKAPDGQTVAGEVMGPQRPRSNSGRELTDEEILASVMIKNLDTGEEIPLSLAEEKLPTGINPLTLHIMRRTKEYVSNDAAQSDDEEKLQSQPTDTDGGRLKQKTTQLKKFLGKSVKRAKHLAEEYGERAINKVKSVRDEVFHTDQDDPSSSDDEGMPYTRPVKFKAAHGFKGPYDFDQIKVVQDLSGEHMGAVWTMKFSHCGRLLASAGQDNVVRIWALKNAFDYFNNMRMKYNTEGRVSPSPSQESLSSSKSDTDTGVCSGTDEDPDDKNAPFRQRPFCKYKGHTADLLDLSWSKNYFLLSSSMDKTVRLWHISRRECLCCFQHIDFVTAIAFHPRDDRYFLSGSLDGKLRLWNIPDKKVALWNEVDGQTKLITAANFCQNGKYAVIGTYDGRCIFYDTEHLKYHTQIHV

Measured: binding

Endogenous RAB11
binds: all assays above

Where a chain is given by its changes, count along the chain named. Results are given in words; binding and its absence hold for the method and conditions named. Binding seen in cells or lysates may run through a third protein. Binding can be weak; no strength is given. Tags and fused reporters may be left off the sequences shown.
